Some of the results follow. Many values rest on one well or one pass, so single values are uncertain.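 Cells were imaged in 1,536-well plates, and nuclei stained with an antibody against cleaved PARP were counted against all DNA-stained nuclei to give the apoptosis fraction. Screening doses were chosen to leave most cells alive, and resting and induced cleaved-PARP levels differ strongly between cell lines.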

Some test systems named below: MZ2-MEL; MeWo; RPMI7951; RVH-421; SkMel28; SkMel2; SkMel30; SkMel5; UACC257; UACC62; WM115; WM1716; WM1745; WM3526; WM3619; WM451Lu.
Common to all, as to test: cleaved PARP positive nuclei fraction relative to DMSO control; melanoma cells; higher = more apoptosis
Details in all cases: library dose: low library concentration; 72 h

With `Cn1c(=O)n(-c2ccc(C(C)(C)C#N)cc2)c2c3cc(-c4cnc5ccccc5c4)ccc3ncc21` + O=S(=O)(c1ccccc1)N(CC(F)(F)F)c1ccc(C(O)(C(F)(F)F)C(F)(F)F)cc1 [T0901317] (first compound 0.004 µM, partner dose 1.4 µM), the “cleaved PARP positive nuclei fraction” value with MZ2-MEL is 85.5%; with MeWo it was 47.8%; in the test with RPMI7951 it was 85.8%; in the test with RVH-421 it was 207%; with SkMel28, 94.8%; in the test with SkMel2, 41.1%. Moreover, the “cleaved PARP positive nuclei fraction” value amounted to 18.5% with SkMel30; 227% in the test on SkMel5; 26.8% with UACC257; 561% with UACC62; 76.4% in the test with WM115; 56.9% in the test with WM1716. The “cleaved PARP positive nuclei fraction” value amounted to 98.9% in the test with WM1745, 42.9% with WM3526, 75.2% in the test on WM3619 and 182% with WM451Lu.

On to `CC(C)C[C@H](NC(=O)[C@H](Cc1ccccc1)NC(=O)c1cnccn1)B(O)O` [Bortezomib] + COC(=O)c1sccc1S(=O)(=O)Nc1ccc(Nc2ccccc2)cc1OC [GSK0660] (first compound 0.001 µM, partner dose 1 µM), for which the “cleaved PARP positive nuclei fraction” value in the test with MZ2-MEL is 125%; in the test on MeWo, 156%; in the test with RPMI7951, 119%; in the test on RVH-421, 49.7%; in the test with SkMel28 it was 163%; in the test with SkMel2, 96.4%. Moreover, the “cleaved PARP positive nuclei fraction” value in the test with SkMel30 came out at 48.7%; with SkMel5 it was 74.5%; in the test with UACC257 it was 257%; in the test on UACC62, 181%; with WM115 it was 137%; with WM1716, 237%. The “cleaved PARP positive nuclei fraction” value in the test with WM1745 came out at 160%; in the test on WM3526, 219%; in the test on WM3619, 1460%; with WM451Lu it was 35.7%.

For `O=C(O)[C@@H]1[O][Sb](=[O])([O][Sb]2(=[O])[O][C@H]([C@H](O)CO)[C@H](O)[C@H](C(=O)O)[O]2)[O][C@H]([C@H](O)CO)[C@@H]1O` (some centres undefined) [stibogluconate] + CC(C)(C)c1cnc(CSc2cnc(NC(=O)C3CCNCC3)s2)o1 [SNS-032] (first compound 2 µM, partner dose 0.01 µM), the “cleaved PARP positive nuclei fraction” value in the test with MZ2-MEL worked out at 81.8%; with MeWo, 20%; in the test on RPMI7951 it was 99.3%; with RVH-421, 302%; in the test with SkMel28 it was 66.8%; in the test on SkMel2 it was 63.9%. In addition, the “cleaved PARP positive nuclei fraction” value in the test with SkMel30 came to 60.9%; in the test on SkMel5, 57.5%; with UACC257, 74.4%; with UACC62 it was 48.4%; with WM115, 154%; with WM1716 it was 117%. The “cleaved PARP positive nuclei fraction” value in the test on WM1745 worked out at 92.5%; in the test with WM3526, 81.5%; with WM3619 it was 90.1%; in the test on WM451Lu, 58.5%.

Consider `Nc1nc(F)nc2c1ncn2[C@@H]1O[C@H](CO)[C@@H](O)[C@@H]1O` [fludarabine] + CC(C)(C)c1cnc(CSc2cnc(NC(=O)C3CCNCC3)s2)o1 [SNS-032] (first compound 0.2 µM, partner dose 0.01 µM), for which the “cleaved PARP positive nuclei fraction” value with MZ2-MEL turned out to be 85%; with MeWo it was 902%; in the test on RPMI7951 it was 134%; in the test with RVH-421, 198%; with SkMel28, 119%; with SkMel2 it was 1210%. Moreover, the “cleaved PARP positive nuclei fraction” value worked out at 3040% in the test with SkMel30; 383% with SkMel5; 78.5% in the test with UACC257; 25.5% with UACC62; 166% in the test on WM115; 88.4% in the test on WM1716. The “cleaved PARP positive nuclei fraction” value was 104% in the test with WM1745, 222% in the test on WM3526, 96.1% with WM3619 and 800% in the test with WM451Lu.

In the case of `C[C@@H](Oc1cc(-c2cnn(C3CCNCC3)c2)cnc1N)c1c(Cl)ccc(F)c1Cl` [Crizotinib] + C=CCn1c(=O)c2cnc(Nc3ccc(N4CCN(C)CC4)cc3)nc2n1-c1cccc(C(C)(C)O)n1 [MK1775] (first compound 0.2 µM, partner dose 0.02 µM), the “cleaved PARP positive nuclei fraction” value with MZ2-MEL was 55.5%; in the test with MeWo, 73.8%; with RPMI7951, 58.6%; in the test on RVH-421, 47.1%; in the test with SkMel28, 268%; in the test on SkMel2, 39.2%. Also, the “cleaved PARP positive nuclei fraction” value in the test with SkMel30 came to 68.7%; with SkMel5 it was 78.9%; in the test with UACC257, 54.2%; in the test on UACC62, 146%; with WM115 it was 224%; in the test on WM1716, 87.8%. Besides, the “cleaved PARP positive nuclei fraction” value stood at 106% in the test on WM1745, 65% with WM3526, 137% with WM3619 and 313% with WM451Lu.

With `CS(=O)(=O)CCNCc1ccc(-c2ccc3ncnc(Nc4ccc(OCc5cccc(F)c5)c(Cl)c4)c3c2)o1` [lapatinib] + O=C(CCCCCCC(=O)Nc1ccccc1)NO [vorinostat] (first compound 0.8 µM, partner dose 0.08 µM), the “cleaved PARP positive nuclei fraction” value in the test on MZ2-MEL is 108%; in the test with MeWo it was 84.5%; with RPMI7951, 44.7%; in the test with RVH-421, 118%; with SkMel28, 44.4%; in the test with SkMel2 it was 164%. Moreover, the “cleaved PARP positive nuclei fraction” value in the test with SkMel30 stood at 84.5%; in the test on SkMel5, 74.8%; in the test on UACC257 it was 230%; in the test on UACC62 it was 51.8%; with WM115, 58.3%; in the test on WM1716 it was 112%. The “cleaved PARP positive nuclei fraction” value in the test with WM1745 came out at 93.8%; in the test on WM3526, 65.8%; in the test on WM3619, 112%; in the test on WM451Lu, 61.2%.

On to `C[C@@H](Oc1cc(-c2cnn(C3CCNCC3)c2)cnc1N)c1c(Cl)ccc(F)c1Cl` [Crizotinib] + CCN(CC)CCCCNc1ncc2cc(-c3cc(OC)cc(OC)c3)c(NC(=O)NC(C)(C)C)nc2n1 [PD173074] (first compound 0.2 µM, partner dose 0.1 µM), for which the “cleaved PARP positive nuclei fraction” value in the test on MZ2-MEL is 72.3%; in the test with MeWo, 163%; in the test with RPMI7951, 67.9%; in the test with RVH-421 it was 136%; in the test on SkMel28, 147%; in the test on SkMel2 it was 153%. Moreover, the “cleaved PARP positive nuclei fraction” value came out at 172% in the test with SkMel30; 81.3% with SkMel5; 180% in the test with UACC257; 93.1% with UACC62; 102% in the test with WM115; 177% in the test with WM1716. Further, the “cleaved PARP positive nuclei fraction” value in the test with WM1745 came to 109%; in the test on WM3526, 74.5%; in the test on WM3619, 100%; with WM451Lu, 109%.

With `O=C(O)[C@@H]1[O][Sb](=[O])([O][Sb]2(=[O])[O][C@H]([C@H](O)CO)[C@H](O)[C@H](C(=O)O)[O]2)[O][C@H]([C@H](O)CO)[C@@H]1O` (some centres undefined) [stibogluconate] + O=C(Nc1cccc(Cl)c1)Nc1ncc(CCNc2ncnc3ccsc23)s1 [SNS314] (first compound 2 µM, partner dose 0.0008 µM), the “cleaved PARP positive nuclei fraction” value in the test with MZ2-MEL worked out at 198%; in the test on MeWo, 96.2%; in the test with RPMI7951 it was 125%; in the test with RVH-421 it was 73.7%; with SkMel28, 18.3%; in the test with SkMel2, 95.7%. The “cleaved PARP positive nuclei fraction” value came out at 185% in the test with SkMel30; 124% in the test on SkMel5; 24.5% in the test on UACC257; 116% with UACC62; 85% in the test with WM115; 62.5% in the test with WM1716. The “cleaved PARP positive nuclei fraction” value stood at 94% in the test on WM1745, 67.6% in the test with WM3526, 90.8% in the test with WM3619 and 360% in the test on WM451Lu.

Consider `Nc1ccn([C@@H]2O[C@H](CO)[C@@H](O)C2(F)F)c(=O)n1` [gemcitabine] + COc1cc2ncnc(Nc3ccc(Oc4ccccc4)cc3)c2cc1OC [SrcI1] (first compound 0.0004 µM, partner dose 2 µM), for which the “cleaved PARP positive nuclei fraction” value was 145% in the test with MZ2-MEL; 172% with MeWo; 53.3% in the test with RPMI7951; 97.5% in the test with RVH-421; 162% in the test with SkMel28; 112% in the test on SkMel2. Also, the “cleaved PARP positive nuclei fraction” value in the test on SkMel30 was 437%; with SkMel5 it was 69.6%; with UACC257, 71%; with UACC62 it was 119%; in the test with WM115 it was 54.7%; in the test on WM1716 it was 70.3%. Besides, the “cleaved PARP positive nuclei fraction” value with WM1745 is 122%; in the test on WM3526, 102%; in the test with WM3619, 117%; with WM451Lu, 150%.

These data come from the supplement of paper PMC4604168 (melanoma cell lines).
